This is an account of results in publication PMC5290284, “Portal protein functions akin to a DNA-sensor that couples genome-packaging to icosahedral capsid maturation” (Nature Communications, 2017).

Amino acid sequences for entries named in this document (tags omitted). Residues count along the entry.
UniProt P26744, residues 602-725: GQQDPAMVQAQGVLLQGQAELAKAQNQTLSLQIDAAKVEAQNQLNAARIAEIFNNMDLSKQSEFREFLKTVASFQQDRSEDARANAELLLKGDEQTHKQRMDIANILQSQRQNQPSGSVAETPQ

The target of this assay is isolated barrel domain of P22 portal protein (res. 602–725) (bacteriophage P22) (UniProt P26744). Nature of the assay: SEC; gel filtration chromatography of the isolated barrel (res. 602–725), in the presence of tert-butanol; both purified.

These are yes or no findings as the source states them, for the method shown.

Regarding “isolated barrel domain of P22 portal protein (res. 602–725) (from UniProt P26744 602-725) (domain or fragment)”, the binding entry was “no binding”.
